Among all 52,000 sequences or so, about 210 (0.4%) were called active.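 How the source made its calls: active means gene whose silencing raises cell survival under the drug, median off-target-corrected z-score across its silencing RNAs 2 or more; inactive means the rest.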 Some of the results follow.

Consider 67 sequences from PubChem BioAssay AID1347423 (Functional Genomics Laboratory (NCATS/FGL), 2020).

The nature of this experiment: Resistance to Poly (ADP-Ribose) Polymerase inhibitor: Gene Identification via Genome-wide siRNA Screen. The following applies: mouse BRCA2 R2336H ES cells, olaparib, CellTiter-Glo viability; stronger effect = higher value. The method in brief: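 Mouse BRCA2 R2336H ES cells were reverse-transfected with siRNA (20 nM final), treated at 48 h with 500 nM olaparib, and read by CellTiter-Glo after 72 h. Scores: MAD-based z per siRNA, median per gene, seed off-target correction.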
On the technique in general: Cellular ATP, detected with luciferase, serves as a proxy for viable cell number.
As to GGUGUUUUGUGAAUUGAAATT against Leprotl1, the z-score is inactive: 0.828.

With “GCAAGUGAAAUCCAAACAGTT against 5830411E10Rik”, the z-score is inactive: -0.89.

On to GGUGGAUUUUUUGUUGAUCTT against Nat5, for which the z-score is inactive: -0.684.

Turning to GGCCGAAGCCCAGAAACAATT against Itih4, the z-score is inactive: -2.02.

With GGUACUUCCUCAUUUACCUTT against Zdhhc4, the z-score was inactive: -0.978.

In the case of GCCAAGUGCUACAACAUCCTT against Ifitm5, the z-score is inactive: -0.201.

With GGAAUUUGCCAAUGACUUCTT against Cygb, the z-score is inactive: 0.738.

Consider CCUACUCUACAACAUGGAATT against Alox15, for which the z-score was inactive: -0.158.

With GCACAUUUUAGCCUAAUGGTT against Tpm3, the z-score was inactive: 0.0454.

Regarding GGGAUAGCAAGACUUUCACTT against C5r1, the z-score is inactive: -0.0492.

For the sequence GGCCGAGAGUAUUUCUACATT against Efna5, the z-score is inactive: -1.46.

As for “GGGUAUUCUUGCUUUAGCUTT against C330049O21Rik”, the z-score was inactive: -0.735.

For the sequence GGGUUUCUUCCCUGAGCUATT against Nxf7, the z-score is inactive: -2.83.

Turning to GUGUCUCUGUAGUUGUUACTT against Olfr494, the z-score is inactive: 1.55.

As to GCAGCGUAUGCUAAUAUAATT against Cln3, the z-score was inactive: 0.219.

In the case of GGUAAUCCUGACUUCGUGGTT against Asb17, the z-score is inactive: 1.28.

As for “CCAAUUGGUAUCAAGCAAUTT against 2610207I16Rik”, the z-score is inactive: 0.778.

For the sequence GGCAGCUUUCCUAUUGAAUTT against Tex19, the z-score was inactive: -0.164.

Regarding GGAUGGACAACUGAAGUCATT against Dnajb10, the z-score was inactive: 0.694.

For GGAGCUAACUGUCAAUGGATT against Dub1, the z-score is inactive: 0.805.

On to “GGAACCUAAAACACUAAACTT against 4932415D10Rik”, for which the z-score is inactive: 0.294.

GGAUUUUGAAGAUGCUUGUTT against Mak10: the z-score is inactive: -0.812.

Turning to CCCAAAAAAAUCGUACUGUTT against Rbx1, the z-score is inactive: 0.821.

For the sequence “CGCGUGCAUUAAUGCCUCUTT against 1700095H12”, the z-score is inactive: 1.15.

Regarding GGAAGAAUUGAACCACAGGTT against Papolg, the z-score is inactive: 0.756.

GGAAUUGACCAAGACAUAUTT against Mep1b: the z-score was inactive: -0.665.

Consider CCUAUUUUAACCUUACGUGTT against Bdh, for which the z-score was inactive: 0.262.

With GGGUGCCAAACACCUCAGUTT against Igfbp2, the z-score is inactive: -0.907.

GCCAAUGUAACCUUCAAAATT against Lypla1: the z-score is inactive: 0.603.

With GGAGCGAUGUAGUUGCUUGTT against Olig1, the z-score was inactive: 1.4.

CCGAGUUUGGCUAUAAAGGTT against Tufm: the z-score was inactive: -0.409.

As for GGGACCCAAACAUUGAAGCTT against Fez1, the z-score is inactive: -0.0683.

Take “GCUACAGCACAUGGGAUUCTT against 5730411O18Rik”: the z-score was inactive: -0.284.

As for CCUAAGUCCAAUCACACCUTT against Olfr1076, the z-score is inactive: 0.764.

Take GGCGAGAAGAGGUGAAUCATT against Nrbp: the z-score is inactive: -1.61.

CCCAAACUGAAUUAAGCAGTT against Spata7: the z-score was inactive: 0.129.

Regarding “GCUAUGAAUCAGAAUGAAGTT against B230209C24Rik”, the z-score was inactive: -0.756.

As for GGAUUCUUCAUUUCUAGUGTT against C1qtnf6, the z-score was inactive: 0.239.

Regarding “GGCCAAGCUGAAGAAAAUGTT against 6330500D04Rik”, the z-score is inactive: -2.27.

Take GGAUGUUGCUGUCGAUACATT against Kcnq3: the z-score is inactive: 1.06.

GGGCUUUUACUCCUACCUGTT against BC042513: the z-score is inactive: -0.798.

As for GGAUGACAGUGUGAUUGUGTT against Zfpn1a4, the z-score was inactive: -1.28.

As for GGAGAUGCUGGACUGCUUUTT against Htr1b, the z-score is active: -0.751.

On to GGCAUGUUCAUGUUCACUATT against BC004853, for which the z-score was inactive: 1.58.

Consider GGAGAAGGUUCACUCUGAUTT against Traf1, for which the z-score is inactive: -2.85.

Turning to GGCAACUUUUAACUAACUUTT against Gbp2, the z-score is inactive: -0.223.

As for CGACCUACCUUUAAGCUUGTT against MGC79224, the z-score was inactive: 0.723.

For the sequence “CCUAACUUCACUUGAUAUGTT against 5730407K14Rik”, the z-score was inactive: -0.113.

As to GGAGGUGAUCUGUACCGGATT against Nek4, the z-score was inactive: 1.95.

With “GGAUAACCUCGUCUUCAACTT against 5031404N07”, the z-score is inactive: 0.692.

For the sequence GGACAUACAGUGAUGAGGCTT against D6Ertd32e, the z-score is inactive: 0.699.

As to GCUGGAAGCAUUUGUUUUUTT against Uap1, the z-score was inactive: -0.0797.

Regarding GGCCGUUGUAUGAAGAGUATT against Ace2, the z-score is inactive: 0.374.

As for “GGACAGCUUUCAUGGAAAATT against 2410016O06Rik”, the z-score was inactive: 1.32.

Consider GGUUAUUAUAAUGAUCUGGTT against Wdr33, for which the z-score is inactive: -0.0353.

For the sequence GGAUAUCAACAGAUACAUCTT against Serpina12, the z-score was inactive: 1.97.

In the case of GGAACUGCCCAUUCAUCUATT against Pramel6, the z-score is inactive: -1.5.

CCUUAUAAGAAAGAUAGACTT against Nhlrc2: the z-score was inactive: 1.06.

For the sequence GGAGGUUGAGGCUUCUAAGTT against Pacsin3, the z-score was inactive: 1.56.

Consider GGAAGACCCUAAGGACUAUTT against Stk23, for which the z-score is inactive: -0.035.

With GGCAUUUAUUUACCCUAGATT against Pcdha11, the z-score was inactive: -0.999.

Turning to GCUCACAGAAACGACCCAUTT against Bicd1, the z-score is inactive: 0.356.

Turning to GGAGCAGACGAUAUGCAGATT against Copb2, the z-score was inactive: -3.79.

Regarding “GCUUCACAAUUCCUGAUAATT against D6Ertd245e”, the z-score was inactive: 0.91.

For CCAUGGACCAAAUGAAGUUTT against Cd44, the z-score was inactive: 1.02.

Take “GGCAACCAUACUUCAUCUATT against 8430410A17Rik”: the z-score is inactive: -0.107.

As for GGCGGUCAAGUGAGGUUCUTT against Hhex, the z-score is inactive: -0.207.
